Test results published in US20050158751A1.
These are yes or no findings as the source states them, for the method shown. Some entries that bind do so weakly or less than the wild type.

Molecular target: Drosophila Recombination Associated Protein (DRAP), native 20 KDa species from Drosophila embryonic nuclear extracts (Drosophila melanogaster)
Test: retention on Centricon molecular weight cutoff filters; active material behaved as if >30 KDa in 500 mM NaCl

B1: Drosophila Recombination Associated Protein (DRAP), native 20 KDa species from Drosophila embryonic nuclear extracts (enzyme)
chain: MASNNSSTTDLDSQVNVEDLPITFKVKYIGSEVARGLWGIKYTRRPVDIMVGVAKNLPPNKVLPNCELKVSTDGVQLEIISPKASINHWSYPIDTISYGVQDLVYTRVFAMIVVKDESSPHPFEVHAFVCDSRAMARKLTFALAGRLPGLLATGQGGNR
Question: Which binding does the source give for B1 here?
Answer: binds
